# These are yes or no findings as the source states them, for the method shown. In cells and extracts the contact can be indirect. For some assays here: Binding can be weak; no strength is given.
# B1: heat shock protein 47 (Hsp47), endogenous (protein, UniProt P50454 19-418)
# chain: AEVKKPAAAAAPGTAEKLSPKAATLAERSAGLAFSLYQAMAKDQAVENILVSPVVVASSLGLVSLGGKATTASQAKAVLSAEQLRDEEVHAGLGELLRSLSNSTARNVTWKLGSRLYGPSSVSFADDFVRSSKQHYNCEHSKINFRDKRSALQSINEWAAQTTDGKLPEVTKDVERTDGALLVNAMFFKPHWDEKFHHKMVDNRGFMVTRSYTVGVMMMHRTGLYNYYDDEKEKLQIVEMPLAHKLSSLIILMPHHVEPLERLEKLLTKEQLKIWMGKMQKKAVAISLPKGVVEVTHDLQKHLAGLGLTEAIDKNKADLSRMSGKKDLYLASVFHATAFELDTDGNPFDQDIYGREELRSPKLFYADHPFIFLVRDTQSGSLLFIGRLVRPKGDKMRDEL
# What was measured:
# [1] = molecular target: Flag-FBXO2-C (FBXO2 with deletion of the F-box domain) (human); assay: co-IP
# [2] = molecular target: Flag-FBXO2-N (FBXO2 without the FBA domain) (human); assay: co-IP
binder,measurement,setting,value
B1,binding,[1],binds
same,binding,[2],no binding

# — paper doi:10.1101/2024.03.28.586926
